# Test results published in the supplement of paper PMC10849652.
# Amino acid sequences for entries named in this document (tags omitted). A change or cut given only in a name is not applied to a line headed by its entry.
# UniProt Q9H9Z2: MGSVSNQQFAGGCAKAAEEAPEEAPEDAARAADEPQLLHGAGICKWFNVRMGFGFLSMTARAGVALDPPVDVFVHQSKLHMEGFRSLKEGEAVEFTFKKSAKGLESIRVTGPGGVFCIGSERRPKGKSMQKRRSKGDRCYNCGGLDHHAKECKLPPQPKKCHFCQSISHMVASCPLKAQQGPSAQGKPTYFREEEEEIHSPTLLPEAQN
# UniProt Q9BQD3: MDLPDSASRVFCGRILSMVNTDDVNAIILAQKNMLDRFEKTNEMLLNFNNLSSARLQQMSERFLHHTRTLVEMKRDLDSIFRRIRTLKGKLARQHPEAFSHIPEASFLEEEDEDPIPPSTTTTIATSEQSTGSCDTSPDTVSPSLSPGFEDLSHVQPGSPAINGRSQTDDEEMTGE
# UniProt P17931, whole entry, looked up: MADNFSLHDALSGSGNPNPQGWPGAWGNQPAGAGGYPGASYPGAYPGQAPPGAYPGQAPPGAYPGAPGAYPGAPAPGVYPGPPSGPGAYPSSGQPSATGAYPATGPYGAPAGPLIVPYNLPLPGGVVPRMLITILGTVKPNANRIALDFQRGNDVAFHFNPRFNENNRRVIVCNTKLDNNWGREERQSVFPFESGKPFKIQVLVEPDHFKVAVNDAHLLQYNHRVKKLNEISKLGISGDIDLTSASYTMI
# UniProt P55268: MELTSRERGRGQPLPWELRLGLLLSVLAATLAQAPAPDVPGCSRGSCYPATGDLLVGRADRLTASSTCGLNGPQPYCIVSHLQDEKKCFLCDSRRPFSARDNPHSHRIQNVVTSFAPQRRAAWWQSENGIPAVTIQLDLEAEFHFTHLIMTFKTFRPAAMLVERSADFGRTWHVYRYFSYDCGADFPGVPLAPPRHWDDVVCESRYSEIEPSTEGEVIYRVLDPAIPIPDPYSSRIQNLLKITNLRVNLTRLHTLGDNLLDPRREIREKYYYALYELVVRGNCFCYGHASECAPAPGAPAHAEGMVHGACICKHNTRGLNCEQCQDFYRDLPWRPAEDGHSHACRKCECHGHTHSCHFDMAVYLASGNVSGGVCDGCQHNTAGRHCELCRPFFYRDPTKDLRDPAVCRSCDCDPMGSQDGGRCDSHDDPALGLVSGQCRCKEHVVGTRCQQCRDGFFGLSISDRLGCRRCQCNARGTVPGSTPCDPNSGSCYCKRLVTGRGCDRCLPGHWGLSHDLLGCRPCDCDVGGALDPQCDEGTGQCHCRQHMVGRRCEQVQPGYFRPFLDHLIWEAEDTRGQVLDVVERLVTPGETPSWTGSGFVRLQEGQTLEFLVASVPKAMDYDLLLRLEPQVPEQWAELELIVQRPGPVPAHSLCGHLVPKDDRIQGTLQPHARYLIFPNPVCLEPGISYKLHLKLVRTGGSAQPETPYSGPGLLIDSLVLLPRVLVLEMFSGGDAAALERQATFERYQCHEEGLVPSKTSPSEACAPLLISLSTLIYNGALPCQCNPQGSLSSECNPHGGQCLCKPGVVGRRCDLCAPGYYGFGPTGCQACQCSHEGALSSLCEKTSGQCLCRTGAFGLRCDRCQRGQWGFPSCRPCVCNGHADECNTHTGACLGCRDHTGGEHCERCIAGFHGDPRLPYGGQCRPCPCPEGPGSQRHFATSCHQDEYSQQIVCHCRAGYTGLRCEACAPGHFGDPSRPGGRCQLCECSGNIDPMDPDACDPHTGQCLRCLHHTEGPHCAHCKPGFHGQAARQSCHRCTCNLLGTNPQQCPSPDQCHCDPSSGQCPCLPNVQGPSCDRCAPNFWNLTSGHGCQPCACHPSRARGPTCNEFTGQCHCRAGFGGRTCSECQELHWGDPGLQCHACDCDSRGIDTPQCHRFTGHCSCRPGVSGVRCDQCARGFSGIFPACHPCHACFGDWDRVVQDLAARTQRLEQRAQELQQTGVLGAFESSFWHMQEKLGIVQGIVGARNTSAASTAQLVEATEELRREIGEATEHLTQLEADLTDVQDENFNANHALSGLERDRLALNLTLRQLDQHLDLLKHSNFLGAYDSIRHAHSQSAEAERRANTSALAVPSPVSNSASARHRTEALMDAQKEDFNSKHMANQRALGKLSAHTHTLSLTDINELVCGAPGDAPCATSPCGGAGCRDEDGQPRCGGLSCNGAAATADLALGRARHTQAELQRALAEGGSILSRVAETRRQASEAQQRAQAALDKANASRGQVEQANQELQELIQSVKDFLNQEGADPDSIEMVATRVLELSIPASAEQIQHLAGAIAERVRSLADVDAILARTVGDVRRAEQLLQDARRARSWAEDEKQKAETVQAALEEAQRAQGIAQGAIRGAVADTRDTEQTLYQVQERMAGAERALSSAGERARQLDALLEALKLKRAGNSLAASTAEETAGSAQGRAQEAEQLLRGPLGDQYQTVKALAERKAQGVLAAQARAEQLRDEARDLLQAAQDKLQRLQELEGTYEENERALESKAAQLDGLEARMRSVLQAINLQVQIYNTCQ
# UniProt Q99538: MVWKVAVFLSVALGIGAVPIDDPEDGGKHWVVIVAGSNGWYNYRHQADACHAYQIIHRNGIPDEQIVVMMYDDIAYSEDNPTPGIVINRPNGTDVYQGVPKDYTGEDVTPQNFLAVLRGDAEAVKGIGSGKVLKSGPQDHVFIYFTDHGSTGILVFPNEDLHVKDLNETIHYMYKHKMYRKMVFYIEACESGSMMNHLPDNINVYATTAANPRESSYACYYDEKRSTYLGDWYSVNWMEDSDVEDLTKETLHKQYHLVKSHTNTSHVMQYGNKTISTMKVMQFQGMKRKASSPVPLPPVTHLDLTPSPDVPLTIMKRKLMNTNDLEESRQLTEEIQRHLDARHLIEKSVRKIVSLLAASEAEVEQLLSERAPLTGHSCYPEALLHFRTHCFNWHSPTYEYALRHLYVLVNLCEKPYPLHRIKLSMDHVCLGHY
# UniProt Q86WU2: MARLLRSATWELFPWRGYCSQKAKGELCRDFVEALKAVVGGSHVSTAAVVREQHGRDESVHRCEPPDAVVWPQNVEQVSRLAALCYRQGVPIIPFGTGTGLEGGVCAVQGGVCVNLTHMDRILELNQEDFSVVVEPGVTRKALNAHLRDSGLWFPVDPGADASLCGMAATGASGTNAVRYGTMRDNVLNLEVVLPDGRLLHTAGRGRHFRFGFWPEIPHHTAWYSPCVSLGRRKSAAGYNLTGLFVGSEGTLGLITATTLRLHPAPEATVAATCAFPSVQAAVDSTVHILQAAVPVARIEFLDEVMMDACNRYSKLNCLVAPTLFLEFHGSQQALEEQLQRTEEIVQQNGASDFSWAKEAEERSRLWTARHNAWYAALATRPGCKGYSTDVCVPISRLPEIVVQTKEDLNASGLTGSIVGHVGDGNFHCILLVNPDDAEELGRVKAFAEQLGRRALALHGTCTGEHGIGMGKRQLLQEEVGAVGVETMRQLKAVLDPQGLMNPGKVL
# UniProt Q9BT23: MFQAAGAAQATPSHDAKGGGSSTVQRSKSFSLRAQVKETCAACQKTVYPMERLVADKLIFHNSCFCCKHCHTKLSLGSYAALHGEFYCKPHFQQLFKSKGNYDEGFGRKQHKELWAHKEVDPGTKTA
# UniProt Q96JN0: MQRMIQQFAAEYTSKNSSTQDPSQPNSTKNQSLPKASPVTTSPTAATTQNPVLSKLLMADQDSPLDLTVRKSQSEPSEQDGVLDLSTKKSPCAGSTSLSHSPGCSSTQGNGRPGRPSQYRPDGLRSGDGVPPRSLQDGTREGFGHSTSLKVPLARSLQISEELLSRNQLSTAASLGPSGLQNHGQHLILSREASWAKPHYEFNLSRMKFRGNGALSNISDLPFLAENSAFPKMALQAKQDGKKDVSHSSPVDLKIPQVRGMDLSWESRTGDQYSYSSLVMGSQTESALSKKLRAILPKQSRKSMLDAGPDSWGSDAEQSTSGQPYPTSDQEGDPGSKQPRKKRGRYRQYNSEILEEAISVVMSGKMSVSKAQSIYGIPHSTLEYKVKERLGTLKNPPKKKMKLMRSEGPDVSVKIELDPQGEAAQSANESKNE
# The other results are listed elsewhere or left out.
# How the values were obtained:
# Assay in all cases: log2 fold change, soluble protein after heating vs DMSO (PISA); higher = thermal stabilisation; K562 cells, 10 uM, 30 min; active = over 0.2 and 3.5 SD of the protein, either way, in both replicates (recomputed)
# filanesib = compound: CON(C)C(=O)N1N=C(c2cc(F)ccc2F)S[C@@]1(CCCN)c1ccccc1 [filanesib]
# How it was run: (§1)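 K562 cells at 2×10^6 cells/mL were given 10 μM compound for 30 min. Aliquots then went through 3 min of heating across 48°C-58°C, were pooled, and were extracted in PBS with 0.5% NP-40 at 4°C, and the supernatant after 21,000xg for 90 min was quantified by TMTpro 16plex LC-MS/MS with channel sums equalised. Thermal stability relative to control samples, from duplicates, is given as log2 fold change.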
# zotarolimus = compound: CO[C@H]1C[C@@H]2CC[C@@H](C)[C@@](O)(O2)C(=O)C(=O)N2CCCC[C@H]2C(=O)O[C@H]([C@H](C)C[C@@H]2CC[C@H](n3cnnn3)[C@H](OC)C2)CC(=O)[C@H](C)/C=C(\C)[C@@H](O)[C@@H](OC)C(=O)[C@H](C)C[C@H](C)/C=C/C=C/C=C/1C [zotarolimus]
# How it was run: as §1
# pictilisib = compound: CS(=O)(=O)N1CCN(Cc2cc3nc(-c4cccc5[nH]ncc45)nc(N4CCOCC4)c3s2)CC1 [pictilisib]
# How it was run: as §1
# idasanutlin = compound: COc1cc(C(=O)O)ccc1NC(=O)[C@@H]1N[C@@H](CC(C)(C)C)[C@](C#N)(c2ccc(Cl)cc2F)[C@H]1c1cccc(Cl)c1F [idasanutlin]
# How it was run: as §1
# alisertib = compound: COc1cc(Nc2ncc3c(n2)-c2ccc(Cl)cc2C(c2c(F)cccc2OC)=NC3)ccc1C(=O)O [alisertib]
# How it was run: as §1
# [1] = compound: COc1cc2nc(-c3cc(F)ccc3O)nc(N[C@@H]3CNC[C@H]3C(C)(C)O)c2cc1OC
# How it was run: as §1
# [2] = compound: COc1cccc2cc(-c3nc([C@H]4CC[C@H](C(=O)O)CC4)n4ncnc(N)c34)[nH]c12
# How it was run: as §1
# lapatinib = compound: CS(=O)(=O)CCNCc1ccc(-c2ccc3ncnc(Nc4ccc(OCc5cccc(F)c5)c(Cl)c4)c3c2)o1 [lapatinib]
# How it was run: as §1
# gefitinib = compound: COc1cc2ncnc(Nc3ccc(F)c(Cl)c3)c2cc1OCCCN1CCOCC1 [gefitinib]
# How it was run: as §1
target,measurement,setting,value
LIN28A (UniProt Q9H9Z2),log2 fold change,filanesib,inactive: -0.023
same,log2 fold change,zotarolimus,inactive: -0.19
same,log2 fold change,pictilisib,inactive: 0.162
KXD1 (UniProt Q9BQD3),log2 fold change,zotarolimus,inactive: 0.073
same,log2 fold change,idasanutlin,inactive: -0.021
same,log2 fold change,alisertib,inactive: -0.019
same,log2 fold change,[1],inactive: 0.042
same,log2 fold change,[2],active: 0.342
same,log2 fold change,lapatinib,inactive: -0.054
same,log2 fold change,pictilisib,inactive: 0.063
LGALS3 (UniProt P17931),log2 fold change,alisertib,inactive: 1.44
same,log2 fold change,gefitinib,inactive: 0.174
same,log2 fold change,[2],inactive: -0.035
same,log2 fold change,pictilisib,inactive: 0.038
"LARP1B, A0A3B3ISF0",log2 fold change,filanesib,inactive: 0.282
same,log2 fold change,[1],inactive: -0.074
same,log2 fold change,lapatinib,inactive: 0.035
same,log2 fold change,pictilisib,inactive: -0.171
LAMB2 (UniProt P55268),log2 fold change,alisertib,inactive: 0.197
same,log2 fold change,[1],inactive: -0.14
same,log2 fold change,[2],inactive: 0.068
same,log2 fold change,lapatinib,inactive: 0.164
LGMN (UniProt Q99538),log2 fold change,[1],inactive: -0.192
same,log2 fold change,lapatinib,inactive: 0.021
same,log2 fold change,pictilisib,inactive: -0.03
LDHD (UniProt Q86WU2),log2 fold change,zotarolimus,inactive: 0.014
LIMD2 (UniProt Q9BT23),log2 fold change,filanesib,inactive: 0.003
same,log2 fold change,zotarolimus,inactive: 0.074
same,log2 fold change,idasanutlin,inactive: -0.022
same,log2 fold change,[1],inactive: 0.105
same,log2 fold change,lapatinib,inactive: 0.087
LCOR isoform 3 (UniProt Q96JN0),log2 fold change,idasanutlin,inactive: -0.001

# 2 entries from above in another layout:
target	measurement	setting	value
KXD1 (UniProt Q9BQD3)	log2 fold change	[1]	inactive: 0.042
same	log2 fold change	[2]	active: 0.342
